{"source": "patent US8394824B2", "about": "(priority 2004, dated 2013)", "test_system": "ex vivo ileum specimen", "note": "Counter-ions that a name gives are not always drawn."}
{"smiles": "CN1[C@@H]2CC[C@H]1C[C@@H](OC(=O)C(CO)c1ccccc1)C2", "note": "(stereo partly shown) [atropine sulfate, reference compound]", "values": [{"measurement": "ileum contraction response resulted from electric irritation", "value": "completely blocked"}]}
